Some of the results follow.

By UniProt entry, the sequences of proteins in these tests, tags left out.
UniProt Q0JBA9, entry or part of it: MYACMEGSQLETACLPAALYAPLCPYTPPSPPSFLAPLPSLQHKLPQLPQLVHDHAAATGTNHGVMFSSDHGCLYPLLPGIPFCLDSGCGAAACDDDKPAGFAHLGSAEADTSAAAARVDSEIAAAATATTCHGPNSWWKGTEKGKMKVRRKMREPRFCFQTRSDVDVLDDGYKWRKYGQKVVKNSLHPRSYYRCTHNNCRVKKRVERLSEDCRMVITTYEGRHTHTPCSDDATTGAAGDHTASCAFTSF

The target in this test is OsWRKY34 (Oryza sativa, UniProt Q0JBA9 1-250). Briefly: protein-binding microarray (RPBM); PBS, 2% BSA, 51.3 ng/ul salmon testes DNA, 50 uM zinc acetate, 200 nM TF, 25 C, 1 h; high values mean tight binding. To be noted: protein: recombinant; tags: N-terminal polyhistidine and DsRed monomer fusion (pET32a); label: CyDye5-dUTP incorporated in the synthesized complementary strand; 3' TTTTT single-stranded linker to array surface; dsDNA, one strand shown. In outline:
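Binding signal here means per-feature fluorescence intensity in arbitrary units. The values were read on an Axon 4000B scanner after a custom Agilent array, double-stranded by primer extension with Cy5-dUTP, was incubated with 200 nM protein at 25 °C for 1 h in PBS with 2% BSA, salmon testes DNA and 50 µM zinc acetate, then washed. The proteins were transcription factors with an N-terminal polyhistidine tag and DsRed, expressed in E. coli BL21-CodonPlus and purified on Ni–NTA.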
In the case of “GATTCTATGGTTGATGGTTAATTTCATAGTTGATGGACTGCGGAGTCACCTAGTGCAG”, the binding signal is 8750 fluorescence intensity (a.u.).

Take “CTCCTGCGCGGCCACGTCTCACCTACCACCACCTTACCCTCGGAGTCACCTAGTGCAG”: the binding signal was 14800 fluorescence intensity (a.u.).

Consider “ATTATATTTTACAATTCTCTATTTTACACTTATATTTTCACGGAGTCACCTAGTGCAG”, for which the binding signal was 9230 fluorescence intensity (a.u.).

With “CTAGGTGCCTACCCTTTTGACCTCCACTTGCTACAAGTTACGGAGTCACCTAGTGCAG”, the binding signal is 10600 fluorescence intensity (a.u.).

“TAATCTCTTCTTACACACTGCTTATATTTTGATGTGTTTCCGGAGTCACCTAGTGCAG”: the binding signal is 11000 fluorescence intensity (a.u.).

On to “TTCATCTTCTCCTCCGTTTCTTCTTCGCTTGTCTCCAAGCCGGAGTCACCTAGTGCAG”, for which the binding signal is 8390 fluorescence intensity (a.u.).

Turning to “GCATTTATATGGGGTGGTGATTAATGGTGTTGTTTAAGGGCGGAGTCACCTAGTGCAG”, the binding signal is 8990 fluorescence intensity (a.u.).

With “TCAACCATAATCACTAGTGTCACAAACACCTTGAAATTCACGGAGTCACCTAGTGCAG”, the binding signal was 8120 fluorescence intensity (a.u.).

On to “TCCACCCCATCCATCCGTCCGTCCGTCGCACCAGGCCCACCGGAGTCACCTAGTGCAG”, for which the binding signal is 9660 fluorescence intensity (a.u.).

Regarding “TCTCTCTCTCTCTCTCTCTCTCTCTCTATATATATATATACGGAGTCACCTAGTGCAG”, the binding signal was 9620 fluorescence intensity (a.u.).

As to “GCAGCAAATCGATTTTATCCGCCGCACCTTTTGCCGCTCTCGGAGTCACCTAGTGCAG”, the binding signal is 8100 fluorescence intensity (a.u.).

Turning to “TCATCTTCACCTCCATTTGGCTTTATTTCTTACCTTTTAACGGAGTCACCTAGTGCAG”, the binding signal was 10700 fluorescence intensity (a.u.).

In the case of “GTAGCCTTTCAGCTCACCGAGTTCTCCTGTTCCTTCCGGCCGGAGTCACCTAGTGCAG”, the binding signal is 8740 fluorescence intensity (a.u.).

Turning to “CACTTAATCTTCATCTTTATCCTCATCTACTTGAGTTACTCGGAGTCACCTAGTGCAG”, the binding signal is 10700 fluorescence intensity (a.u.).

As to “CCCTCCGTTTCTTTTTATTTGTCGTTTTTGACAGCTTCAGCGGAGTCACCTAGTGCAG”, the binding signal is 9420 fluorescence intensity (a.u.).

As for “TAACTTTCCACTTTTCTGTCATATCGTTTTAATTTTAACTCGGAGTCACCTAGTGCAG”, the binding signal was 10300 fluorescence intensity (a.u.).

For “CCATAGACTTCACTACTCATCTTGTTCGTCGTTTTAGTTGCGGAGTCACCTAGTGCAG”, the binding signal is 8540 fluorescence intensity (a.u.).

Regarding “TTATGTTAAGATCACCCTACACTGCTTATGCCATGATCATCGGAGTCACCTAGTGCAG”, the binding signal was 9760 fluorescence intensity (a.u.).

Take “TCAATCTATCCATATTAGTCCTTCAAGTTTTCATTTTAGTCGGAGTCACCTAGTGCAG”: the binding signal was 8160 fluorescence intensity (a.u.).

On to “GTATTTTAAATTCCACTTGAAGTATTTTTGGTTCTTTCACCGGAGTCACCTAGTGCAG”, for which the binding signal is 8060 fluorescence intensity (a.u.).

As to “ACATACTCACACTCTGCCTAGTAAAGTCTAACAATGGTCCCGGAGTCACCTAGTGCAG”, the binding signal is 9000 fluorescence intensity (a.u.).

“CTCTCTCATCCATTGCCTCGTTTTTCTCTATAGACTATCTCGGAGTCACCTAGTGCAG”: the binding signal was 8680 fluorescence intensity (a.u.).

For “TAGGTGATCCATTCTTTCTTTCTTTTCCTTTTTTGTCTTCCGGAGTCACCTAGTGCAG”, the binding signal was 11900 fluorescence intensity (a.u.).

For “CAAGCCTACGCTACTCGTTGGATTGTCATTTTCTCATTTTCGGAGTCACCTAGTGCAG”, the binding signal was 9040 fluorescence intensity (a.u.).

Take “ACGACCCGTCTAGTTGCCCGTTCACGATTCACGCCTTCACCGGAGTCACCTAGTGCAG”: the binding signal is 9990 fluorescence intensity (a.u.).

As for “ACACAGTCACACTCATCTCCCTGTTGGATGTTCACAGTCGCGGAGTCACCTAGTGCAG”, the binding signal was 9770 fluorescence intensity (a.u.).

Consider “ACATCGAATCCGCCATCGTTCCTTAGCTACGCCATATAATCGGAGTCACCTAGTGCAG”, for which the binding signal was 13200 fluorescence intensity (a.u.).

In the case of “TGGTATTCCCTGTCCCCAACACCCACAAGAATACAAGAACCGGAGTCACCTAGTGCAG”, the binding signal is 8260 fluorescence intensity (a.u.).

Consider “TCAAGCCTACTTCACCACTTTTCCTCCATCCATTTTGTCACGGAGTCACCTAGTGCAG”, for which the binding signal is 9110 fluorescence intensity (a.u.).

Take “TATCGATCAGGCATCACCCACTCCAAGCCATGGCCCTTTCCGGAGTCACCTAGTGCAG”: the binding signal is 8320 fluorescence intensity (a.u.).

“CTCTTCTCTACCTATCATATTTATTCTTCATCTATTACGACGGAGTCACCTAGTGCAG”: the binding signal was 9070 fluorescence intensity (a.u.).

Regarding “GGCTTATTACCAGTGGGACACCCACTTTTTCTTTTATTTTCGGAGTCACCTAGTGCAG”, the binding signal is 8340 fluorescence intensity (a.u.).

Turning to “GGGTTATCTCGTCGTTTGCTTCGCTGTTATGCCGCCGCGGCGGAGTCACCTAGTGCAG”, the binding signal is 16000 fluorescence intensity (a.u.).

As to “AATAAGTTAAAACATCTGTCGCTGCAATTCCGGAGATACTCGGAGTCACCTAGTGCAG”, the binding signal was 8130 fluorescence intensity (a.u.).

With “AACATTCAAACCGTGCTCAATTTCTCTCTCTCTCTCTCTCCGGAGTCACCTAGTGCAG”, the binding signal was 9860 fluorescence intensity (a.u.).

Take “TAACACCCCAACCAAACCCCACTTTGGCACTTTATAAAATCGGAGTCACCTAGTGCAG”: the binding signal was 8310 fluorescence intensity (a.u.).

Consider “CATCTTCGTCCTTTAAATTTGTTTTATTTTAAATCCTCTACGGAGTCACCTAGTGCAG”, for which the binding signal is 8400 fluorescence intensity (a.u.).

For “ACTGTCCATTAATTTCCTAACTCCATGCCGTTTTCCAACTCGGAGTCACCTAGTGCAG”, the binding signal was 8610 fluorescence intensity (a.u.).

On to “CCGTTCGCTCGCTCGCAAGCCCATGCCTCCAAGTAGCTTCCGGAGTCACCTAGTGCAG”, for which the binding signal is 12000 fluorescence intensity (a.u.).

For “TTATGGGTGGGTGAACAGGTGAGCAGCCAGGTTGATCTCCCGGAGTCACCTAGTGCAG”, the binding signal was 8810 fluorescence intensity (a.u.).

For the sequence “CGATCTCCGTCCATCGATATGTCACGTACTCCTCACCAACCGGAGTCACCTAGTGCAG”, the binding signal is 8370 fluorescence intensity (a.u.).

Turning to “CTCCCTTGCCGTCCCAGTTTCCCTGTATTCTGCATGCCGTCGGAGTCACCTAGTGCAG”, the binding signal is 9850 fluorescence intensity (a.u.).
